Data from patent publication US20210261642A1, “SOLUBILITY OF GLP-1 PEPTIDE” (Novo Nordisk A/S, priority 2017, published 2021).
This continues a long series; more values of the same kind are listed elsewhere.

Experiment: Assay (I): Determination of Solubility (96-well plate, pH 3.0-11.0, organic solvent 0-70% w/w, UV absorption at 280 nm)
Type: physicochemical
Settings: Method 1 (evaporation)
Method: Assay (I): Determination of Solubility
96-Well Plate Preparation
96-well plates containing target peptide in a solid form were prepared in one of two ways:
Method 1 (evaporation): Addition of 100 μl stock solution of said peptide at a concentration of 4-6 mg/ml to each well of a 96-well half area plate (150 μl well size). Subsequently the solvent was evaporated by applying a vacuum until the solvent was completely removed.
Method 2 (precipitation): Addition of a certain volume of a stock solution of said peptide containing to each well of a 96-well half area plate followed by the addition of a certain volume of concentrated phosphoric acid to obtain a pH of 4.6 followed by addition of a certain volume of ethanol resulting in a final ethanol concentration of 20% v/v. Subsequently the plate was stored at 4° C. for 1 h and then centrifuged at 4,000 rpm for 20 min. Finally the supernatant was removed. The concentration of the stock solution was chosen in a way that the final amount of peptide after supernatant removal was >0.4 mg per well.
In both cases the stock solution was prepared by adding de-ionized water to a certain amount of powder of said peptide followed by a stepwise addition of small amounts of a concentrated sodium hydroxide solution until said peptide was completely in solution.
To determine solubility of a target peptide at different pH and organic solvent concentrations, two different buffer systems were used in independent experiments to cover the whole range from pH 3.0 to pH 11.0. Buffer system 1 covers pH 3.0-7.5 and buffer system 2 covers pH 7.5-11.0. For each buffer system 96 different solvent compositions were premixed in the following way: • 1. A low pH buffer (adjusted to either pH 3.0 or pH 7.5) and a high pH buffer (adjusted to either pH 7.5 or pH 11.0) were mixed at 8 different ratios to obtain values between pH 3.0 and pH 7.5 or pH 7.5 and pH 11.0, respectively. The total volume after mixing was 300 μl. • 2. 12 different amounts of organic solvent were then added to these buffers to obtain organic solvent (e.g. ethanol) concentrations between 0 and 70% w/w. • 3. Water was then added to obtain a total weight of 1.0 g of solvent in each well.
After preparing the 96 different solvent systems, 100 μl of each system was transferred to the 96-well plate containing the solid form of the target peptide (prepared as described in the section “96-well plate preparation”). The plate was then stored at a given temperature (between 5° C. and 70° C.) for a given time on a rotating shaker set to 400 rpm. At regular time intervals the plate was centrifuged (4,000 rpm for 10 min) and a 10 μl sample was taken from each well. The samples were then analysed by UV absorption at 280 nm for peptide quantification. Peptide concentration results are given as UV absorption at 280 nm of the sample subtracted UV absorption at 280 nm of a well comprising 10 μl water.
The buffers used were as follows: • Buffer system 1 (for the pH range from pH 3.0-7.5)
• Buffer system 2 (for the pH ranae from pH 7.5-11.0)
Solubility of liraglutide was determined using Assay (I) described herein. Liraglutide was prepared using Method 1 (evaporation) or Method 2 (precipitation) as described in subsection “96-well plate preparation”.

- Peptide concentration after 5 min (DMF 50.9% w/w, pH 5.8, RT): 0.3 mg/mL
- Peptide concentration after 180 min (DMF 50.9% w/w, pH 5.8, RT): 0.3 mg/mL
- Peptide concentration after 24 h (DMF 50.9% w/w, pH 5.8, RT): 0.2 mg/mL
- Peptide concentration after 5 min (DMF 50.9% w/w, pH 6.3, RT): 0.3 mg/mL
- Peptide concentration after 180 min (DMF 50.9% w/w, pH 6.3, RT): 0.3 mg/mL
- Peptide concentration after 24 h (DMF 50.9% w/w, pH 6.3, RT): 0.5 mg/mL
- Peptide concentration after 5 min (DMF 50.9% w/w, pH 6.7, RT): 0.3 mg/mL
- Peptide concentration after 180 min (DMF 50.9% w/w, pH 6.7, RT): 0.3 mg/mL
- Peptide concentration after 24 h (DMF 50.9% w/w, pH 6.7, RT): 0.4 mg/mL
- Peptide concentration after 5 min (DMF 50.9% w/w, pH 6.9, RT): 0.3 mg/mL
- Peptide concentration after 180 min (DMF 50.9% w/w, pH 6.9, RT): 0.4 mg/mL
- Peptide concentration after 24 h (DMF 50.9% w/w, pH 6.9, RT): 0.5 mg/mL
- Peptide concentration after 5 min (DMF 50.9% w/w, pH 7.2, RT): 0.3 mg/mL
- Peptide concentration after 180 min (DMF 50.9% w/w, pH 7.2, RT): 0.4 mg/mL
- Peptide concentration after 24 h (DMF 50.9% w/w, pH 7.2, RT): 0.7 mg/mL
- Peptide concentration after 5 min (DMF 50.9% w/w, pH 7.5, RT): 1.0 mg/mL
- Peptide concentration after 180 min (DMF 50.9% w/w, pH 7.5, RT): >4.0 mg/mL
- Peptide concentration after 5 min (DMF 50.9% w/w, pH 8.0, RT): 1.0 mg/mL
- Peptide concentration after 180 min (DMF 50.9% w/w, pH 8.0, RT): >4.0 mg/mL
- Peptide concentration after 5 min (DMF 50.9% w/w, pH 8.5, RT): 2.1 mg/mL
- Peptide concentration after 180 min (DMF 50.9% w/w, pH 8.5, RT): >4.0 mg/mL
- Peptide concentration after 5 min (DMF 50.9% w/w, pH 9.0, RT): 3.2 mg/mL
- Peptide concentration after 180 min (DMF 50.9% w/w, pH 9.0, RT): >4.0 mg/mL
- Peptide concentration after 5 min (DMF 50.9% w/w, pH 9.5, RT): 2.6 mg/mL
- Peptide concentration after 180 min (DMF 50.9% w/w, pH 9.5, RT): >4.0 mg/mL
- Peptide concentration after 5 min (DMF 50.9% w/w, pH 10.0, RT): 3.8 mg/mL
- Peptide concentration after 180 min (DMF 50.9% w/w, pH 10.0, RT): >4.0 mg/mL
- Peptide concentration after 5 min (DMF 50.9% w/w, pH 10.5, RT): 4.0 mg/mL
- Peptide concentration after 180 min (DMF 50.9% w/w, pH 10.5, RT): >4.0 mg/mL
- Peptide concentration after 5 min (DMF 50.9% w/w, pH 11.0, RT): 1.7 mg/mL
- Peptide concentration after 180 min (DMF 50.9% w/w, pH 11.0, RT): >4.0 mg/mL
- Peptide concentration after 5 min (DMF 57.3% w/w, pH 3.1, RT): 0.2 mg/mL
- Peptide concentration after 180 min (DMF 57.3% w/w, pH 3.1, RT): 0.2 mg/mL
- Peptide concentration after 24 h (DMF 57.3% w/w, pH 3.1, RT): 0.3 mg/mL
- Peptide concentration after 5 min (DMF 57.3% w/w, pH 4.8, RT): 0.2 mg/mL
- Peptide concentration after 180 min (DMF 57.3% w/w, pH 4.8, RT): 0.2 mg/mL
- Peptide concentration after 24 h (DMF 57.3% w/w, pH 4.8, RT): 0.2 mg/mL
- Peptide concentration after 5 min (DMF 57.3% w/w, pH 5.8, RT): 0.3 mg/mL
- Peptide concentration after 180 min (DMF 57.3% w/w, pH 5.8, RT): 0.3 mg/mL
- Peptide concentration after 24 h (DMF 57.3% w/w, pH 5.8, RT): 0.2 mg/mL
- Peptide concentration after 5 min (DMF 57.3% w/w, pH 6.3, RT): 0.2 mg/mL
- Peptide concentration after 180 min (DMF 57.3% w/w, pH 6.3, RT): 0.3 mg/mL
- Peptide concentration after 24 h (DMF 57.3% w/w, pH 6.3, RT): 0.4 mg/mL
- Peptide concentration after 5 min (DMF 57.3% w/w, pH 6.7, RT): 0.3 mg/mL
- Peptide concentration after 180 min (DMF 57.3% w/w, pH 6.7, RT): 0.3 mg/mL
- Peptide concentration after 24 h (DMF 57.3% w/w, pH 6.7, RT): 0.3 mg/mL
- Peptide concentration after 5 min (DMF 57.3% w/w, pH 6.9, RT): 0.7 mg/mL
- Peptide concentration after 180 min (DMF 57.3% w/w, pH 6.9, RT): 0.4 mg/mL
- Peptide concentration after 24 h (DMF 57.3% w/w, pH 6.9, RT): 0.4 mg/mL
- Peptide concentration after 5 min (DMF 57.3% w/w, pH 7.2, RT): 0.3 mg/mL
Compound: CCCCCCCCCCCCCCCC(=O)N[C@@H](CCC(=O)NCCCC[C@H](NC(=O)[C@H](C)NC(=O)[C@H](C)NC(=O)[C@H](CCC(N)=O)NC(=O)CNC(=O)[C@H](CCC(=O)O)NC(=O)[C@H](CC(C)C)NC(=O)[C@H](Cc1ccc(O)cc1)NC(=O)[C@H](CO)NC(=O)[C@H](CO)NC(=O)[C@@H](NC(=O)[C@H](CC(=O)O)NC(=O)[C@H](CO)NC(=O)[C@@H](NC(=O)[C@H](Cc1ccccc1)NC(=O)[C@@H](NC(=O)CNC(=O)[C@H](CCC(=O)O)NC(=O)[C@H](C)NC(=O)[C@@H](N)Cc1cnc[nH]1)[C@@H](C)O)[C@@H](C)O)C(C)C)C(=O)N[C@@H](CCC(=O)O)C(=O)N[C@@H](Cc1ccccc1)C(=O)N[C@H](C(=O)N[C@@H](C)C(=O)N[C@@H](Cc1c[nH]c2ccccc12)C(=O)N[C@@H](CC(C)C)C(=O)N[C@H](C(=O)N[C@@H](CCCNC(=N)N)C(=O)NCC(=O)N[C@@H](CCCNC(=N)N)C(=O)NCC(=O)O)C(C)C)[C@@H](C)CC)C(=O)O [liraglutide, Arg34,Lys26-(N-epsilon-(gamma-L-glutamyl(N-alfa-hexadecanoyl)))-GLP-1(7-37)]
